According to PubChem BioAssay AID1794845 (National Center for Advancing Translational Sciences (NCATS), 2023):
Out of some 6,900 compounds screened, fewer than 10 were called active. Calls follow the shape of the dose curve; as a rule, active = well fitted curve in the direction sought with a large enough effect; inconclusive = small, poorly fitted or top-dose-only effect, or another doubt; inactive = no such curve, though single readings can be large or run the other way. The list shows a part of the results.

Chains of the proteins cited; added tags and fusions are not shown. Lines headed by an entry give the natural chain unless they say otherwise; changes in a name come on top.
UniProt C7C422: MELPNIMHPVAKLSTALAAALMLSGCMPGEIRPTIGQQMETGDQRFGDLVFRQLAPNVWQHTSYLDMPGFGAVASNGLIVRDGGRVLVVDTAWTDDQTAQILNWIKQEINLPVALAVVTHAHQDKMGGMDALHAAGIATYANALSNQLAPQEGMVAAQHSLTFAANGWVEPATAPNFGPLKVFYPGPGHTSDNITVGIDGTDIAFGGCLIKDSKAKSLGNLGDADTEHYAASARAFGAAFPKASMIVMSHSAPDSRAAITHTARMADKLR

Target: Metallo-beta-lactamase type 2 (Klebsiella pneumoniae) (UniProt C7C422)
Assay: qHTS to identify inhibitors of the New Delhi Metallo-beta-lactamase (NDM): primary screen against the NCATS Gemini Collection; also: % of control where 0% means no effect
Details: NDM-1 enzyme, meropenem hydrolysis, absorbance 300 nm; at 38.4 µM (top of the series) unless noted
Summary of the method: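 Meropenem hydrolysis (50 uM final) by 2 nM NDM-1 read as 300 nm absorbance after 30 min, following >30 min compound–enzyme preincubation in HEPES pH 7.0 with 1 uM ZnSO4 and 0.01% Tween20.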

Activity % (negative = inhibition), inactive:
COCCN1CCCC(c2[nH]ccc2C(=O)NCCc2nc3ccccc3[nH]2)C1 (centres undefined) 0.729%
O=C(c1ccncc1)N1CCC2(CN[S+](=O)([O-])c3cnccc3O2)C1 (centres undefined) 1.58%
COC(=O)[C@H]1CN(C(=O)NC(C)C)CCN1C(=O)C1CCCCC1 4.98% [at 57.5 µM]
O=C(c1cc(F)ccc1Cl)N1CCCC1c1nncn1Cc1ccncc1 (centres undefined) 3.12%
Cc1ncc2c(c1CNC(=O)c1ccc(OC(F)F)cc1)CCNC2 6.43%
CN(Cc1ccc(-c2ccccc2)cc1)CC1CCCCC1 4.21% [at 57.5 µM]
Cc1cc(OC2CN(C(=O)c3ccccn3)C2)ccc1F 19.7% [at 57.5 µM]
CCc1nnc([C@@H]2CC(F)(F)CN2C(=O)c2occc2C)o1 4.32%
COc1cccc(CN2C[C@@H](CO)[C@H](NC(=O)C3CCC3)C2)c1 -0.995%
CN(Cc1nc(-c2ccccc2)no1)C(=O)c1cccc(C2CCNC2)c1 (centres undefined) -0.217%
CC(=O)Nc1ccc(CN2CC[C@@H](c3ccc4c(c3)OCO4)[C@H](O)C2)cc1 -0.153%
CCN(C1CCOCC1)C1CN(C(=O)c2ccnn2C)C1 16%
O=C(Cn1c(=O)oc2ccccc21)N1CC2CC(C1)[C@H]1CCCC(=O)N1C2 (some centres undefined) 5.87%
COc1cccc(CN2CCC(C(=O)N3CCCCCCNC(=O)CC3)CC2)c1 -3.36%
O=C1OCC2(CCN(Cc3c[nH]c4ccccc34)C2)N1Cc1ccccc1 (centres undefined) 50.4% [at 57.5 µM]
COCCNC(=O)c1cc(-c2ccc(Cl)nc2)nc2c1cnn2C 28.9% [at 57.5 µM]
Cc1nn(-c2ccccc2)c2c1C(C(C)C)N(C1CCCN(C(=O)c3ccccc3F)C1)C2=O (centres undefined) -6.3%
CCOCCn1c(=O)n(Cc2cc(OC)ccn2)c2cc(C(=O)O)cnc21 15.3%
COc1ccc(CN2C(=O)COC[C@H]2C(=O)N2CCc3ccccc3C2)c(OC)c1 13.6%
O=C1COCC2(CN1)CN(C(=O)c1ccc(Cl)cc1)C2 0.381% [at 77.1 µM]
CN(C)c1cccc(Oc2nnnn2[C@H]2CO[C@H]3[C@@H]2OC[C@@H]3NCC2CC2)c1 1.75% [at 57.5 µM]
COc1ccc([C@@H]2CN(C(=O)CCc3c(C)noc3C)C[C@H]2N(C)C)cc1 -1.02%
CN(C)c1nc(NC2CC(c3cc(=O)[nH]c(C4CC4)n3)C2)ncc1F (centres undefined) -3.83%
CN(C)C(=O)N1CCN(c2ccc(Cl)nn2)C(=O)C1 7.94% [at 57.5 µM]
COc1ccc(-c2[nH]ncc2CN2CC[C@H]3CC[C@@H](C2)N3)cc1 14.4%
Cc1noc(C)c1[S+](=O)([O-])N1CCCC1C(=O)N1CCC(c2nc3ccncc3[nH]2)CC1 (centres undefined) 22.3%
Cc1cccc(S(=O)(=O)N2[C@@H]3CC[C@H]2CC(NC(=O)c2ccncc2)C3)c1 (some centres undefined) 0.447%
CCN1CCN(C(=O)c2ccc3nc(-c4cccnc4)oc3c2)CC1 16.5%
COc1ccc(F)cc1-c1cccc(C(=O)NCCNC(=O)c2ccccc2Cl)c1 6.94%
CN(c1cc(=O)c2ccnc(-c3ccc(F)c(Cl)c3)c2o1)C1CCOCC1 -2.65% [at 57.5 µM]
COc1ccccc1-c1cccc(C(=O)N2CCN([S+](=O)([O-])c3c(C)noc3C)CC2)c1 1.78%
Cn1nc2n(c1=O)CCN(C1CCSCC1)CC2 2.04%
Cn1cnnc1CC1CCNC1 (centres undefined) -6.74%
CC(C)c1nnc(C2CN(C(=O)c3ccc4ccccc4n3)CC23CCOCC3)o1 (centres undefined) 20.3%
O=C(O)c1cccc(C2CCCN(C(=O)c3c(F)cccc3Cl)C2)c1 (centres undefined) 7.93%
COC1CCN(CC2CCCCCN2C(=O)c2ccoc2)CC1 (centres undefined) -2.58%
CCS(=O)(=O)N[C@@H]1CN(C2CCOCC2)C[C@H]1CN(C)C -3.93%
CN(CC1CCOCC1)C(=O)NCc1ccco1 0.225%
COc1ccc(-c2cnc(Nc3ccc(CN4CCN(C)CC4)cc3)c3c2CCO3)cn1 71.5% [at 57.5 µM]
O=[S+]1([O-])NCC2(CCN(Cc3ccccn3)CC2)Nc2ccccc21 -0.629%
CN1CCN([C@H]2[C@@H]3OC[C@@H](O3)[C@@H](NC(=O)Nc3ccccc3)[C@@H]2O)CC1 -5.52% [at 57.5 µM]
COc1ccc(C(=O)N2CCC(C3CCN(S(C)(=O)=O)CC3)C2)cn1 (centres undefined) 10.8%
Cc1cnc(-c2ccncc2)n1CCNC(=O)NCc1ccc(F)cc1 -0.735%
CN(C)C(=O)N1CCC2(CC1)CC(c1cccc(C(F)(F)F)c1)=NO2 -0.151%
c1ccc(CC2=NOC3(CCCN(Cc4ccns4)C3)C2)cc1 (centres undefined) 0.667% [at 57.5 µM]
COc1ccccc1CCC(=O)N1CCCC(c2[nH]ccc2C(N)=O)C1 (centres undefined) -2.39%
Cc1cc(C)cc(N2CCC(NS(=O)(=O)c3cn(C)c(C)n3)C2=O)c1 (centres undefined) 3.11%
Cc1cc(C(=O)N2CC[C@H](NS(=O)(=O)c3cn(C)cn3)C[C@H]2C(=O)N[C@H](Cc2c[nH]c3ccccc23)C(N)=O)n(C)n1 4.3%
Cc1ccccc1CN1C[C@H](O)C[C@H]1c1nc(C2CC2)no1 -2.68% [at 57.5 µM]
Cc1nc(C)c(C(=O)N2CCC(Cc3nc(C4CC4)n[nH]3)CC2)s1 18.2%
O[C@@H]1CCN(Cc2nc(C3(O)CCN(Cc4ccccc4F)CC3)cs2)C1 7.83% [at 57.5 µM]
CC(C)NC(=O)N1CCC(Oc2ccccc2)C1 (centres undefined) 7.68%
NC1CCc2n[nH]c(=O)n2CC1 (centres undefined) 25.4%
Cc1ccc(C(C)NC(=O)CN2C(=O)C3(CCNCC3)Nc3ccccc32)cc1 (centres undefined) 0.0058%

A draw from above in order of molar mass, largest number first.
Activity % (negative = inhibition), inactive:
Cc1cc(C(=O)N2CC[C@H](NS(=O)(=O)c3cn(C)cn3)C[C@H]2C(=O)N[C@H](Cc2c[nH]c3ccccc23)C(N)=O)n(C)n1 4.3%
Cc1nn(-c2ccccc2)c2c1C(C(C)C)N(C1CCCN(C(=O)c3ccccc3F)C1)C2=O (centres undefined) -6.3%
Cc1noc(C)c1[S+](=O)([O-])N1CCCC1C(=O)N1CCC(c2nc3ccncc3[nH]2)CC1 (centres undefined) 22.3%
COc1ccccc1-c1cccc(C(=O)N2CCN([S+](=O)([O-])c3c(C)noc3C)CC2)c1 1.78%
CC(C)c1nnc(C2CN(C(=O)c3ccc4ccccc4n3)CC23CCOCC3)o1 (centres undefined) 20.3%
COc1cccc(CN2CCC(C(=O)N3CCCCCCNC(=O)CC3)CC2)c1 -3.36%
Cc1cccc(S(=O)(=O)N2[C@@H]3CC[C@H]2CC(NC(=O)c2ccncc2)C3)c1 (some centres undefined) 0.447%
Cc1cc(C)cc(N2CCC(NS(=O)(=O)c3cn(C)c(C)n3)C2=O)c1 (centres undefined) 3.11%
Cc1nc(C)c(C(=O)N2CCC(Cc3nc(C4CC4)n[nH]3)CC2)s1 18.2%
CN(C)c1nc(NC2CC(c3cc(=O)[nH]c(C4CC4)n3)C2)ncc1F (centres undefined) -3.83%
COC(=O)[C@H]1CN(C(=O)NC(C)C)CCN1C(=O)C1CCCCC1 4.98% [at 57.5 µM]
COC1CCN(CC2CCCCCN2C(=O)c2ccoc2)CC1 (centres undefined) -2.58%
Cc1ccccc1CN1C[C@H](O)C[C@H]1c1nc(C2CC2)no1 -2.68% [at 57.5 µM]
